B1: D. rerio NCOA3 N-CID-C (CID with N- and C-terminal flanking regions) (domain or fragment)
chain: GSPPQSPSWPDSGMGMEGPPSANRLPINSPLDELLAPPSTSEGQSDERALLDQLDSLLNNTDVIALEEIDRALGIPDLINQGHSSDQPPPSDPFSGPCLGPDSSMGMEPPKAMYGQGYPGPP
B2: D. rerio NCOA2 N-CID-C (CID with N- and C-terminal flanking regions) (domain or fragment)
chain: GPGSPPNQTAPWPDSVMPIEPVPFGNQSSSMYGGSQEDVLCPPASEGPADEGALLSQLYSALKDFDGLEEIDRALGIPALVGQAQPVEQDQFPGQDPSMMMDQKPPMYGQQQYASSPANMQQAG
B3: D. rerio NCOA1 N-CID-C (CID with N- and C-terminal flanking regions) (domain or fragment)
chain: GSEPMTFDNSLANQTQAPLSSPQEQCVPCPLDEMLCPPTTPEGRNDEKALLEQLVTFLSHTDESELAELDRALGIDKIVQSGCLEPVTQTPFPQSQPPTPVPLDPKLPSYPSQFPTSPSQFP

Binding data for six molecules are collected here from publication PMC10515491, “Intrinsically Disordered Flanking Regions Increase the Affinity of a Transcriptional Coactivator Interaction across Vertebrates” (Biochemistry, 2023).

Results are given in words; binding and its absence hold for the method and conditions named. A result given as binding can be weak or reduced; the word gives no strength.

The target in this assay is D. rerio NCBD (nuclear coactivator binding domain of CBP), Trp variant (D. rerio). Briefly: stopped-flow spectroscopy; Trp variant of NCBD mixed with CID at varied concentration; kon from the slope of kobs, koff from displacement with excess wild-type NCBD, Kd = koff/kon; 20 mM sodium phosphate pH 7.40, 150 mM NaCl, 4 °C; both purified.
For the molecule B1, the binding entry is “binds”. With B2, the binding entry was “binds”. The entry for B3 is “binds”. The entry for GPGSASEGPADEGALLSQLYSALKDFDGLEEIDRALGIPALVGQAQ (domain or fragment) [D. rerio NCOA2 CID (minimal region)] is “binds”; for GSEGQSDERALLDQLDSLLNNTDVIALEEIDRALGIPDLINQGH (domain or fragment) [D. rerio NCOA3 CID (minimal region)] it is “binds”. The entry for GSEGRNDEKALLEQLVTFLSHTDESELAELDRALGIDKIVQSGC (domain or fragment) [D. rerio NCOA1 CID (minimal region)] is “binds”.
